Measured values reported in US10821110B2, “Composite preparation, containing novel 3-(4--(benzyloxy)phenyl)hex-4-inoic acid derivative and another active ingredient, for preventing or treating metabolic diseases” (HYUNDAI PHARM CO., LTD., priority 2014, dated 2020).
The match of structure and compound is tentative.

Amino acid sequences for entries named in this document (tags omitted).
UniProt P08684, whole entry: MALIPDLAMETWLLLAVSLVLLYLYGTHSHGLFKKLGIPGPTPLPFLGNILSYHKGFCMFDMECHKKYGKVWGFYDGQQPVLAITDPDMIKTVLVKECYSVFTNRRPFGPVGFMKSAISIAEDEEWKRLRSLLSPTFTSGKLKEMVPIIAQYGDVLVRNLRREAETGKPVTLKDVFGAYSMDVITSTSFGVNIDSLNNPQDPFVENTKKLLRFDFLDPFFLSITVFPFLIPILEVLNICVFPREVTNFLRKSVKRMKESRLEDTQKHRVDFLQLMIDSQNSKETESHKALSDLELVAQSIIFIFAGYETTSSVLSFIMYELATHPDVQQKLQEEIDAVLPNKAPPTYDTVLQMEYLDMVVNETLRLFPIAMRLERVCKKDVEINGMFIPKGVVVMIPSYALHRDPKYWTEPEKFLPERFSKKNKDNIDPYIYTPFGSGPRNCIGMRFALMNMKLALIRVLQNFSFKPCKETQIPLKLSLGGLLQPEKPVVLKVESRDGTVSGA
UniProt P05177, whole entry: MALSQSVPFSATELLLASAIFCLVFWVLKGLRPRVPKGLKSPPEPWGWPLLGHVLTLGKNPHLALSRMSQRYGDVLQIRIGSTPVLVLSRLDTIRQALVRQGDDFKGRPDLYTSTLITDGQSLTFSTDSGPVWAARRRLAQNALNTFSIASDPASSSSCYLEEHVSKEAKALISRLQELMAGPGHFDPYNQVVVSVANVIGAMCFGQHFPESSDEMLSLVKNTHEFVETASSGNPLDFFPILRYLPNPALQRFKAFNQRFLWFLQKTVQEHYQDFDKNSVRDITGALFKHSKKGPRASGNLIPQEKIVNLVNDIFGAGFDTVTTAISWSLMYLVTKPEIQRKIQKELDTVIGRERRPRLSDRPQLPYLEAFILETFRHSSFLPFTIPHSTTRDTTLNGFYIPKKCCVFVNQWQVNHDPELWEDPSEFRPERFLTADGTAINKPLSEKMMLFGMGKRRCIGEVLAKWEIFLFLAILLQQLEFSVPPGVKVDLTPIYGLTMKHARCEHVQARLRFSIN

Legend:
Male Sprague Dawley rats = test: Oral glucose tolerance test (OGTT) 1; settings: SD rats; 10 mg/kg oral; glucose 4 g/kg 30 minutes after
[1] = system: Male Otsuka Long-Evans Tokushima fatty (OLETF) rats, obese type II diabetic models; test: Oral glucose tolerance test (OGTT) 3
[2] = system: Male Goto-Kakizaki (GK) rats, non-obese type II diabetic models; test: Oral glucose tolerance test (OGTT) 2
CYP3A4 = CYP3A4 (Homo sapiens, UniProt P08684); test: CYP inhibition (BD GENTEST kit); settings: 10 μM
CYP1A2 = CYP1A2 (Homo sapiens, UniProt P05177); test: CYP inhibition (BD GENTEST kit); type: in vitro ADME; settings: 10 μM

Cc1cc(OCCCS(C)(=O)=O)cc(C)c1-c1cccc(COc2ccc3c(c2)OC[C@H]3CC(=O)O)c1
% AUC (reduction (%) of blood glucose AUC) (Male Sprague Dawley rats): 16.2% | blood glucose lowering effect ([1]; 10 mg/kg, values in text): 31.6% | % AUC (reduction (%) of blood glucose AUC) ([1]; Dose 10 mg/kg): B (25.0-35.0%) | blood glucose lowering effect ([2]; 10 mg/kg, values in text): 25.3% | % AUC (reduction (%) of blood glucose AUC) ([2]; Dose 10 mg/kg): B (25.0-35.0%) | CYP Inhibition (%) 3A4 (CYP3A4): 10.0% | CYP Inhibition (%) 1A2 (CYP1A2): 0.8%
